Reference: the supplement of paper PMC8728848
Some of the results follow.

Key:
Experiment in all cases: glycan array binding signal (z-score within array); higher = stronger binding
Settings in all cases: glycan notation: IUPAC condensed, linker removed
[1] = biological target: Fuc(a1-2)[Gal(a1-3)]Gal(b1-4)GlcNAc(b1-2)Man(a1-3)[Fuc(a1-2)[Gal(a1-3)]Gal(b1-4)GlcNAc(b1-2)Man(a1-6)]Man(b1-4)GlcNAc(b1-4)GlcNAc
Outline: (§1)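 The Consortium for Functional Glycomics database supplied 3228 glycan arrays, of which those lacking an available protein sequence were dropped. The binding signal, a within-array Z-score, was averaged across arrays of the same protein sequence and across linkers. Negative scores can be read as non-binding.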

[2] = biological target: Fuc(a1-2)[Gal(a1-3)]Gal(b1-4)GlcNAc(b1-2)Man(a1-3)[Fuc(a1-2)[Gal(a1-3)]Gal(b1-4)GlcNAc(b1-2)Man(a1-6)]Man(b1-4)GlcNAc(b1-4)[Fuc(a1-6)]GlcNAc
Outline: as §1

[3] = biological target: Fuc(a1-2)[Gal(a1-3)]Gal(b1-4)GlcNAc(b1-3)GalNAc
Outline: as §1

[4] = biological target: Fuc(a1-2)[Gal(a1-3)]Gal(b1-4)GlcNAc(b1-3)[Fuc(a1-2)[Gal(a1-3)]Gal(b1-4)GlcNAc(b1-6)]GalNAc
Outline: as §1

[5] = biological target: Fuc(a1-2)[Gal(a1-3)]Gal(b1-4)GlcNAc(b1-6)GalNAc
Outline: as §1

[6] = biological target: Fuc(a1-2)[Gal(a1-3)]Gal(b1-4)[Fuc(a1-3)]Glc
Outline: as §1

[7] = biological target: Fuc(a1-2)[Gal(a1-3)]Gal(b1-4)[Fuc(a1-3)]GlcNAc
Outline: as §1

[8] = biological target: Fuc(a1-2)[Gal(a1-3)]Gal(b1-4)[Fuc(a1-3)]GlcNAc(b1-3)GalNAc
Outline: as §1

[9] = biological target: Fuc(a1-2)[Gal(a1-4)]Gal(b1-4)GlcNAc
Outline: as §1

[10] = biological target: Fuc(a1-2)[GalNAc(a1-3)]Gal
Outline: as §1

[11] = biological target: Fuc(a1-2)[GalNAc(a1-3)]Gal(b1-3)GalNAc(a1-3)[Fuc(a1-2)]Gal(b1-4)GlcNAc
Outline: as §1

[12] = biological target: Fuc(a1-2)[GalNAc(a1-3)]Gal(b1-3)GalNAc(b1-3)Gal(a1-4)Gal(b1-4)Glc
Outline: as §1

[13] = biological target: Fuc(a1-2)[GalNAc(a1-3)]Gal(b1-3)GlcNAc
Outline: as §1

[14] = biological target: Fuc(a1-2)[GalNAc(a1-3)]Gal(b1-3)GlcNAc(b1-2)Man(a1-3)[Fuc(a1-2)[GalNAc(a1-3)]Gal(b1-3)GlcNAc(b1-2)Man(a1-6)]Man(b1-4)GlcNAc(b1-4)GlcNAc
Outline: as §1

[15] = biological target: Fuc(a1-2)[GalNAc(a1-3)]Gal(b1-3)GlcNAc(b1-2)Man(a1-3)[Fuc(a1-2)[GalNAc(a1-3)]Gal(b1-3)GlcNAc(b1-2)Man(a1-6)]Man(b1-4)GlcNAc(b1-4)[Fuc(a1-6)]GlcNAc
Outline: as §1

[16] = biological target: Fuc(a1-2)[GalNAc(a1-3)]Gal(b1-3)GlcNAc(b1-3)GalNAc
Outline: as §1

[17] = biological target: Fuc(a1-2)[GalNAc(a1-3)]Gal(b1-3)GlcNAc(b1-6)GalNAc
Outline: as §1

[18] = biological target: Fuc(a1-2)[GalNAc(a1-3)]Gal(b1-4)Glc
Outline: as §1

[19] = biological target: Fuc(a1-2)[GalNAc(a1-3)]Gal(b1-4)GlcNAc
Outline: as §1

[20] = biological target: Fuc(a1-2)[GalNAc(a1-3)]Gal(b1-4)GlcNAc(b1-2)Man
Outline: as §1

[21] = biological target: Fuc(a1-2)[GalNAc(a1-3)]Gal(b1-4)GlcNAc(b1-2)Man(a1-3)[Fuc(a1-2)[GalNAc(a1-3)]Gal(b1-4)GlcNAc(b1-2)Man(a1-6)]Man(b1-4)GlcNAc(b1-4)GlcNAc
Outline: as §1

[22] = biological target: Fuc(a1-2)[GalNAc(a1-3)]Gal(b1-4)GlcNAc(b1-2)Man(a1-3)[Fuc(a1-2)[GalNAc(a1-3)]Gal(b1-4)GlcNAc(b1-2)Man(a1-6)]Man(b1-4)GlcNAc(b1-4)[Fuc(a1-6)]GlcNAc
Outline: as §1

[23] = biological target: Fuc(a1-2)[GalNAc(a1-3)]Gal(b1-4)GlcNAc(b1-3)Gal(b1-4)GlcNAc
Outline: as §1

[24] = biological target: Fuc(a1-2)[GalNAc(a1-3)]Gal(b1-4)GlcNAc(b1-3)Gal(b1-4)GlcNAc(b1-3)Gal(b1-4)GlcNAc
Outline: as §1

[25] = biological target: Fuc(a1-2)[GalNAc(a1-3)]Gal(b1-4)GlcNAc(b1-3)GalNAc
Outline: as §1

[26] = biological target: Fuc(a1-2)[GalNAc(a1-3)]Gal(b1-4)GlcNAc(b1-3)[Fuc(a1-2)[GalNAc(a1-3)]Gal(b1-4)GlcNAc(b1-6)]GalNAc
Outline: as §1

[27] = biological target: Fuc(a1-2)[GalNAc(a1-3)]Gal(b1-4)GlcNAc(b1-6)GalNAc
Outline: as §1

[28] = biological target: Fuc(a1-2)[GalNAc(a1-3)]Gal(b1-4)[Fuc(a1-3)]GlcNAc
Outline: as §1

[29] = biological target: Fuc(a1-2)[GalNAc(a1-3)]Gal(b1-4)[Fuc(a1-3)]GlcNAc(b1-3)GalNAc
Outline: as §1

[30] = biological target: Fuc(a1-2)[GalNAc(a1-4)]Gal(b1-4)GlcNAc
Outline: as §1

[31] = biological target: Fuc(a1-2)[GalNAc(b1-3)]Gal
Outline: as §1

Fuc(a1-3)GlcNAc = biological target: Fuc(a1-3)GlcNAc
Outline: as §1

[32] = biological target: Fuc(a1-3)[Gal(b1-4)]Glc6S
Outline: as §1

[33] = biological target: Fuc(a1-3)[Gal(b1-4)]GlcNAc
Outline: as §1

[34] = biological target: Fuc(a1-3)[Gal(b1-4)]GlcNAc(b1-2)Man
Outline: as §1

[35] = biological target: Fuc(a1-3)[Gal(b1-4)]GlcNAc(b1-2)Man(a1-3)[Fuc(a1-3)[Gal(b1-4)]GlcNAc(b1-2)Man(a1-6)]Man(b1-4)GlcNAc(b1-4)GlcNAc
Outline: as §1

[36] = biological target: Fuc(a1-3)[Gal(b1-4)]GlcNAc(b1-2)Man(a1-3)[Fuc(a1-3)[Gal(b1-4)]GlcNAc(b1-2)Man(a1-6)]Man(b1-4)GlcNAc(b1-4)[Fuc(a1-6)]GlcNAc
Outline: as §1

[37] = biological target: Fuc(a1-3)[Gal(b1-4)]GlcNAc(b1-3)Gal(b1-3)[Fuc(a1-4)]GlcNAc
Outline: as §1

[38] = biological target: Fuc(a1-3)[Gal(b1-4)]GlcNAc(b1-3)Gal(b1-4)[Fuc(a1-3)]GlcNAc
Outline: as §1

[39] = biological target: Fuc(a1-3)[Gal(b1-4)]GlcNAc(b1-3)Gal(b1-4)[Fuc(a1-3)]GlcNAc(b1-3)Gal(b1-4)[Fuc(a1-3)]GlcNAc
Outline: as §1

[40] = biological target: Fuc(a1-3)[Gal(b1-4)]GlcNAc(b1-3)GalNAc
Outline: as §1

[41] = biological target: Fuc(a1-3)[Gal(b1-4)]GlcNAc(b1-6)GalNAc
Outline: as §1

[42] = biological target: Fuc(a1-3)[Gal(b1-4)]GlcNAc(b1-6)[Gal(b1-3)GlcNAc(b1-3)]Gal(b1-4)Glc
Outline: as §1

[43] = biological target: Fuc(a1-3)[Gal(b1-4)]GlcNAc6S
Outline: as §1

[44] = biological target: Fuc(a1-3)[Gal3S(b1-4)]Glc
Outline: as §1

B1: DCIR1 (Mus musculus), Q9QZ15 (protein)
chain: MASEITYAEVKFKNESNSLHTYSESPAAPREKPIRDLRKPGSPSLLLTSLMLLLLLLAITFLVAFIIYFQKYSQLLEEKKAAKNIMHNELNCTKSVSPMEDKVWSCCPKDWRLFGSHCYLVPTVSSSASWNKSEENCSRMGAHLVVIQSQEEQDFITGILDTHAAYFIGLWDTGHRQWQWVDQTPYEESITFWHNGEPSSGNEKCATIIYRWKTGWGWNDISCSLKQKSVCQMKKINL
- glycan array binding signal (z-score) [1]: -0.994
- glycan array binding signal (z-score) [2]: 2.28
- glycan array binding signal (z-score) [3]: -0.604
- glycan array binding signal (z-score) [4]: 0.352
- glycan array binding signal (z-score) [5]: 0.391
- glycan array binding signal (z-score) [6]: -0.227
- glycan array binding signal (z-score) [7]: -0.054
- glycan array binding signal (z-score) [8]: -0.077
- glycan array binding signal (z-score) [9]: 0.125
- glycan array binding signal (z-score) [10]: -0.4
- glycan array binding signal (z-score) [11]: -0.401
- glycan array binding signal (z-score) [12]: 0.099
- glycan array binding signal (z-score) [13]: -0.113
- glycan array binding signal (z-score) [14]: 0.373
- glycan array binding signal (z-score) [15]: -0.963
- glycan array binding signal (z-score) [16]: 0.659
- glycan array binding signal (z-score) [17]: -0.874
- glycan array binding signal (z-score) [18]: -1.04
- glycan array binding signal (z-score) [19]: -0.88
- glycan array binding signal (z-score) [20]: -0.386
- glycan array binding signal (z-score) [21]: 1.47
- glycan array binding signal (z-score) [22]: 0.512
- glycan array binding signal (z-score) [23]: 0.451
- glycan array binding signal (z-score) [24]: -0.906
- glycan array binding signal (z-score) [25]: -0.071
- glycan array binding signal (z-score) [26]: 0.094
- glycan array binding signal (z-score) [27]: 0.544
- glycan array binding signal (z-score) [28]: 0.173
- glycan array binding signal (z-score) [29]: -0.65
- glycan array binding signal (z-score) [30]: -0.76
- glycan array binding signal (z-score) [31]: 0.468
- glycan array binding signal (z-score) (Fuc(a1-3)GlcNAc): 1.52
- glycan array binding signal (z-score) [32]: 1.57
- glycan array binding signal (z-score) [33]: -0.114
- glycan array binding signal (z-score) [34]: 0.449
- glycan array binding signal (z-score) [35]: 0.638
- glycan array binding signal (z-score) [36]: -0.034
- glycan array binding signal (z-score) [37]: -1.11
- glycan array binding signal (z-score) [38]: 0.215
- glycan array binding signal (z-score) [39]: -0.352
- glycan array binding signal (z-score) [40]: 1.51
- glycan array binding signal (z-score) [41]: 2.41
- glycan array binding signal (z-score) [42]: -0.775
- glycan array binding signal (z-score) [43]: 1.43
- glycan array binding signal (z-score) [44]: -0.579
